# Measurements published in paper PMC2890605.
# No constants are given. Whether binding was seen depends on the method and setting. Binding seen in cells or lysates may run through a third protein.
# B1: Nup153, P49790 1-1475 (protein)
# chain: MASGAGGVGGGGGGKIRTRRCHQGPIKPYQQGRQQHQGILSRVTESVKNIVPGWLQRYFNKNEDVCSCSTDTSEVPRWPENKEDHLVYADEESSNITDGRITPEPAVSNTEEPSTTSTASNYPDVLTRPSLHRSHLNFSMLESPALHCQPSTSSAFPIGSSGFSLVKEIKDSTSQHDDDNISTTSGFSSRASDKDITVSKNTSLPPLWSPEAERSHSLSQHTATSSKKPAFNLSAFGTLSPSLGNSSILKTSQLGDSPFYPGKTTYGGAAAAVRQSKLRNTPYQAPVRRQMKAKQLSAQSYGVTSSTARRILQSLEKMSSPLADAKRIPSIVSSPLNSPLDRSGIDITDFQAKREKVDSQYPPVQRLMTPKPVSIATNRSVYFKPSLTPSGEFRKTNQRIDNKCSTGYEKNMTPGQNREQRESGFSYPNFSLPAANGLSSGVGGGGGKMRRERTRFVASKPLEEEEMEVPVLPKISLPITSSSLPTFNFSSPEITTSSPSPINSSQALTNKVQMTSPSSTGSPMFKFSSPIVKSTEANVLPPSSIGFTFSVPVAKTAELSGSSSTLEPIISSSAHHVTTVNSTNCKKTPPEDCEGPFRPAEILKEGSVLDILKSPGFASPKIDSVAAQPTATSPVVYTRPAISSFSSSGIGFGESLKAGSSWQCDTCLLQNKVTDNKCIACQAAKLSPRDTAKQTGIETPNKSGKTTLSASGTGFGDKFKPVIGTWDCDTCLVQNKPEAIKCVACETPKPGTCVKRALTLTVVSESAETMTASSSSCTVTTGTLGFGDKFKRPIGSWECSVCCVSNNAEDNKCVSCMSEKPGSSVPASSSSTVPVSLPSGGSLGLEKFKKPEGSWDCELCLVQNKADSTKCLACESAKPGTKSGFKGFDTSSSSSNSAASSSFKFGVSSSSSGPSQTLTSTGNFKFGDQGGFKIGVSSDSGSINPMSEGFKFSKPIGDFKFGVSSESKPEEVKKDSKNDNFKFGLSSGLSNPVSLTPFQFGVSNLGQEEKKEELPKSSSAGFSFGTGVINSTPAPANTIVTSENKSSFNLGTIETKSASVAPFTCKTSEAKKEEMPATKGGFSFGNVEPASLPSASVFVLGRTEEKQQEPVTSTSLVFGKKADNEEPKCQPVFSFGNSEQTKDENSSKSTFSFSMTKPSEKESEQPAKATFAFGAQTSTTADQGAAKPVFSFLNNSSSSSSTPATSAGGGIFGSSTSSSNPPVATFVFGQSSNPVSSSAFGNTAESSTSQSLLFSQDSKLATTSSTGTAVTPFVFGPGASSNNTTTSGFGFGATTTSSSAGSSFVFGTGPSAPSASPAFGANQTPTFGQSQGASQPNPPGFGSISSSTALFPTGSQPAPPTFGTVSSSSQPPVFGQQPSQSAFGSGTTPNSSSAFQFGSSTTNFNFTNNSPSGVFTFGANSSTPAASAQPSGSGGFPFNQSPAAFTVGSNGKNVFSSSGTSFSGRKIKTAVRRRK
# Target: CAN/Nup214 (human (endogenous in HeLa)), P35658
# Test: co-IP; immunoprecipitates from mitotic HeLa cell extracts with anti-Nup214, anti-Nup88 or nonspecific rabbit antibodies (IgG); SDS/PAGE and immunoblotting; 500 ul extract per immunoprecipitation
# Details: remark: other sources report otherwise
binder,measurement,value
B1,binding,no binding
